Data on seven molecules can be found in patent US20140137274A1, “INDUCED MALIGNANT STEM CELLS” (LSIP, LLC, priority 2011, published 2014).

B1: PGK1 [Homo sapiens] (protein, UniProt P00558 2-417, looked up)
Phosphoglycerate kinase 1: SLSNKLTLDKLDVKGKRVVMRVDFNVPMKNNQITNNQRIKAAVPSIKFCLDNGAKSVVLMSHLGRPDGVPMPDKYSLEPVAVELKSLLGKDVLFLKDCVGPEVEKACANPAAGSVILLENLRFHVEEEGKGKDASGNKVKAEPAKIEAFRASLSKLGDVYVNDAFGTAHRAHSSMVGVNLPQKAGGFLMKKELNYFAKALESPERPFLAILGGAKVADKIQLINNMLDKVNEMIIGGGMAFTFLKVLNNMEIGTSLFDEEGAKIVKDLMSKAEKNGVKITLPVDFVTADKFDENAKTGQATVASGIPAGWMGLDCGPESSKKYAEAVTRAKQIVWNGPVGVFEWEAFARGTKALMDEVVKATSRGCITIIGGGDTATCCAKWNTEDKVSHVSTGGGASLELLEGKVLPGVDALSNI
B2: calreticulin precursor [Homo sapiens] (protein, UniProt P27797 1-417, looked up)
chain: MLLSVPLLLGLLGLAVAEPAVYFKEQFLDGDGWTSRWIESKHKSDFGKFVLSSGKFYGDEEKDKGLQTSQDARFYALSASFEPFSNKGQTLVVQFTVKHEQNIDCGGGYVKLFPNSLDQTDMHGDSEYNIMFGPDICGPGTKKVHVIFNYKGKNVLINKDIRCKDDEFTHLYTLIVRPDNTYEVKIDNSQVESGSLEDDWDFLPPKKIKDPDASKPEDWDERAKIDDPTDSKPEDWDKPEHIPDPDAKKPEDWDEEMDGEWEPPVIQNPEYKGEWKPRQIDNPDYKGTWIHPEIDNPEYSPDPSIYAYDNFGVLGLDLWQVKSGTIFDNFLITNDEAYAEEFGNETWGVTKAAEKQMKDKQDEEQRLKEEEEDKKRKEEEEAEDKEDDEDKDEDEEDEEDKEEDEEEDVPGQAKDEL
modifications: full-length
B3: Keratin 8 [Homo sapiens] (protein, UniProt P05787 1-483, looked up)
Keratin, type II cytoskeletal …: MSIRVTQKSYKVSTSGPRAFSSRSYTSGPGSRISSSSFSRVGSSNFRGGLGGGYGGASGMGGITAVTVNQSLLSPLVLEVDPNIQAVRTQEKEQIKTLNNKFASFIDKVRFLEQQNKMLETKWSLLQQQKTARSNMDNMFESYINNLRRQLETLGQEKLKLEAELGNMQGLVEDFKNKYEDEINKRTEMENEFVLIKKDVDEAYMNKVELESRLEGLTDEINFLRQLYEEEIRELQSQISDTSVVLSMDNSRSLDMDSIIAEVKAQYEDIANRSRAEAESMYQIKYEELQSLAGKHGDDLRRTKTEISEMNRNISRLQAEIEGLKGQRASLEAAIADAEQRGELAIKDANAKLSELEAALQRAKQDMARQLREYQELMNVKLALDIEIATYRKLLEGEESRLESGMQNMSIHTKTTSGYAGGLSSAYGGLTSPGLSYSLGSSFGSGAGSSSFSRTSSSRAVVVKKIETRDGKLVSESSDVLPK
B4: Putative elongation factor 1-alpha-like 3 (protein, UniProt Q5VTE0 2-462, looked up)
Putative elongation factor …: GKEKTHINIVVIGHVDSGKSTTTGHLIYKCGGIDKRTIEKFEKEAAEMGKGSFKYAWVLDKLKAERERGITIDISLWKFETSKYYVTIIDAPGHRDFIKNMITGTSQADCAVLIVAAGVGEFEAGISKNGQTREHALLAYTLGVKQLIVGVNKMDSTEPPYSQKRYEEIVKEVSTYIKKIGYNPDTVAFVPISGWNGDNMLEPSANMPWFKGWKVTRKDGNASGTTLLEALDCILPPTRPTDKPLRLPLQDVYKIGGIGTVPVGRVETGVLKPGMVVTFAPVNVTTEVKSVEMHHEALSEALPGDNVGFKVKNVSVKDVRRGNVAGDSKNDPPMEAAGFTAQVIILNHPGQISAGYAPVLDCHMAHIACKFAELKEKIDRRSGKKLEDGPKFLKSGDAAIVDMVPGKPMCVESFSDYPPLGRFAVRDMRQTVAVGVIKAVDKKAAGAGKVTKSAQKAQKAK
B5: heat shock protein 60 [Homo sapiens] (protein, UniProt P10809 27-573, looked up)
60 kDa heat shock protein, …: AKDVKFGADARALMLQGVDLLADAVAVTMGPKGRTVIIEQSWGSPKVTKDGVTVAKSIDLKDKYKNIGAKLVQDVANNTNEEAGDGTTTATVLARSIAKEGFEKISKGANPVEIRRGVMLAVDAVIAELKKQSKPVTTPEEIAQVATISANGDKEIGNIISDAMKKVGRKGVITVKDGKTLNDELEIIEGMKFDRGYISPYFINTSKGQKCEFQDAYVLLSEKKISSIQSIVPALEIANAHRKPLVIIAEDVDGEALSTLVLNRLKVGLQVVAVKAPGFGDNRKNQLKDMAIATGGAVFGEEGLTLNLEDVQPHDLGKVGEVIVTKDDAMLLKGKGDKAQIEKRIQEIIEQLDVTTSEYEKEKLNERLAKLSDGVAVLKVGGTSDVEVNEKKDRVTDALNATRAAVEEGIVLGGGCALLRCIPALDSLTPANEDQKIGIEIIKRTLKIPAMTIAKNAGVEGSLIVEKIMQSSSEVGYDAMAGDFVNMVEKGIIDPTKVVRTALLDAAGVASLLTTAEVVVTEIPKEEKDPGMGAMGGMGGGMGGGMF
B6: ER-60 protein [Homo sapiens] (protein, UniProt P30101 25-505, looked up)
Protein disulfide-isomerase A3: SDVLELTDDNFESRISDTGSAGLMLVEFFAPWCGHCKRLAPEYEAAATRLKGIVPLAKVDCTANTNTCNKYGVSGYPTLKIFRDGEEAGAYDGPRTADGIVSHLKKQAGPASVPLRTEEEFKKFISDKDASIVGFFDDSFSEAHSEFLKAASNLRDNYRFAHTNVESLVNEYDDNGEGIILFRPSHLTNKFEDKTVAYTEQKMTSGKIKKFIQENIFGICPHMTEDNKDLIQGKDLLIAYYDVDYEKNAKGSNYWRNRVMMVAKKFLDAGHKLNFAVASRKTFSHELSDFGLESTAGEIPVVAIRTAKGEKFVMQEEFSRDGKALERFLQDYFDGNLKRYLKSEPIPESNDGPVKVVVAENFDEIVNNENKDVLIEFYAPWCGHCKNLEPKYKELGEKLSKDPNIVIAKMDATANDVPSPYEVRGFPTIYFSPANKKLNPKKYEGGRELSDFISYLQREATNPPVIQEEKPKKKKKAQEDL
B7: transgelin variant [Homo sapiens] (protein, UniProt Q01995 2-201, looked up)
Transgelin: ANKGPSYGMSREVQSKIEKKYDEELEERLVEWIIVQCGPDVGRPDRGRLGFQVWLKNGVILSKLVNSLYPDGSKPVKVPENPPSMVFKQMEQVAQFLKAAEDYGVIKTDMFQTVDLFEGKDMAAVQRTLMALGSLAVTKNDGHYRGDPNWFMKKAQEHKREFTESQLQEGKHVIGLQMGSNRGASQAGMTGYGRPRQIIS

The test system of the first data set is endogenous cancer-related proteins. In words: protein identification analysis (iTRAQ labeling, MALDI TOF/MS). Set-up: species or system human. Particulars: protein amount in cc4-d relative to ncc4 (colon non-cancer tissues, negative control).
As for B1, the “Relative quantity (test vs control) Ratio cc4-d/ ncc4” value is reported as 1.225.

In the case of B2, the “Relative quantity (test vs control) Ratio cc4-d/ ncc4” value was 1.007.

With B3, the “Relative quantity (test vs control) Ratio cc4-d/ ncc4” value is reported as 1.614.

B4: the “Relative quantity (test vs control) Ratio cc4-d/ ncc4” value is listed as 1.073.

Regarding B5, the “Relative quantity (test vs control) Ratio cc4-d/ ncc4” value is 0.9412.

With B6, the “Relative quantity (test vs control) Ratio cc4-d/ ncc4” value was found to be 1.058.

Regarding B7, the “Relative quantity (test vs control) Ratio cc4-d/ ncc4” value is 0.3872.

The same data set, now with this note: protein amount in cc4 relative to ncc4 (colon non-cancer tissues, negative control).
In the case of B1, the “Relative quantity (test vs control) Ratio cc4/ ncc4” value stood at 1.137.

Take B2: the “Relative quantity (test vs control) Ratio cc4/ ncc4” value stood at 0.9834.

Turning to B3, the “Relative quantity (test vs control) Ratio cc4/ ncc4” value was 0.7925.

In the case of B4, the “Relative quantity (test vs control) Ratio cc4/ ncc4” value turned out to be 1.076.

B5: the “Relative quantity (test vs control) Ratio cc4/ ncc4” value was found to be 1.19.

For B6, the “Relative quantity (test vs control) Ratio cc4/ ncc4” value came to 1.409.

For B7, the “Relative quantity (test vs control) Ratio cc4/ ncc4” value came to 0.2963.
